In paper PMC6527704:
These are yes or no findings as the source states them, for the method shown. Binding seen in cells or lysates may run through a third protein. Some binding calls cover weakened binding; strength is not graded here.

The chains behind the UniProt entries cited, without tags or fusion partners.
UniProt Q13547: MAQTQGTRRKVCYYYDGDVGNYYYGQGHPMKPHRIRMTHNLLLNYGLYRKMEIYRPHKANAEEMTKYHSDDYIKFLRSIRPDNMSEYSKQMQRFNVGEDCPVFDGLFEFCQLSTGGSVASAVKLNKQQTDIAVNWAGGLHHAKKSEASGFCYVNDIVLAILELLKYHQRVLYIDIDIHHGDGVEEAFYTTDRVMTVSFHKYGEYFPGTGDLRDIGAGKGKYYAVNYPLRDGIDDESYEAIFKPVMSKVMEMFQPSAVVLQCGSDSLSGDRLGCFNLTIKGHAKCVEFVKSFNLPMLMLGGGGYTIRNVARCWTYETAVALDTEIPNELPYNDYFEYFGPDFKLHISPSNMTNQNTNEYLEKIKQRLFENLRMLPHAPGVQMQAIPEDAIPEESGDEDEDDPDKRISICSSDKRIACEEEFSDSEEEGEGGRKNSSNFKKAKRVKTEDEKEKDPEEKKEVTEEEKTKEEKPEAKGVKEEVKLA

T1: exosome-associated protein C1D (human (endogenous in primary lung fibroblasts)) (UniProt Q13901)
T1 sequence: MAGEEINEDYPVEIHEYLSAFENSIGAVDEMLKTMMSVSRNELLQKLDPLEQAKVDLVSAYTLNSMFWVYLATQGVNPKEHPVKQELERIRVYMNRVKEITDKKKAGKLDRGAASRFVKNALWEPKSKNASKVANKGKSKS


Assays:
[1] = target: histone deacetylase 1 (human (endogenous in primary lung fibroblasts)) (UniProt Q13547); assay: co-IP; HDAC1-specific antibodies precipitate endogenous HDAC1 from nuclear protein extracts of Ctrl primary human lung fibroblasts; IgG as negative control; western blot
[2] = target: T1, exosome-associated protein C1D (human (endogenous in primary lung fibroblasts)); assay: co-IP; C1D-specific antibodies precipitate endogenous C1D from nuclear protein extracts of IPF primary human lung fibroblasts treated with the EP300 inhibitor CBP30 (EP300inh); western blot
[3] = target: T1, exosome-associated protein C1D (human (endogenous in primary lung fibroblasts)); assay: co-IP; C1D-specific antibodies precipitate endogenous C1D from nuclear protein extracts of IPF primary human lung fibroblasts transfected with a dominant-negative EP300 (dnEP300, D1399Y) expression construct; western blot
[4] = target: T1, exosome-associated protein C1D (human (endogenous in primary lung fibroblasts)); assay: co-sedimentation; 5-40% sucrose gradient ultracentrifugation (16 h 30 min, 132,000 x g) of nuclear extracts from Ctrl primary human lung fibroblasts in native nuclear lysis buffer (100 mM NaCl, 50 mM Tris-HCl pH 7.0); ten fractions analysed by western blot; the complex was also reconstituted in IPF fibroblasts transfected with MIRLET7D

binding [1]	binding [2]	binding [3]	binding [4]	Binder
binds	binds	binds	binds	nuclear-specific exosome subunit EXOSC10 (protein, UniProt Q01780 1-885) MAPPSTREPRVLSATSATKSDGEMVLPGFPDADSFVKFALGSVVAVTKASGGLPQFGDEYDFYRSFPGFQAFCETQGDRLLQCMSRVMQYHGCRSNIKDRSKVTELEDKFDLLVDANDVILERVGILLDEASGVNKNQQPVLPAGLQVPKTVVSSWNRKAAEYGKKAKSETFRLLHAKNIIRPQLKFREKIDNSNTPFLPKIFIKPNAQKPLPQALSKERRERPQDRPEDLDVPPALADFIHQQRTQQVEQDMFAHPYQYELNHFTPADAVLQKPQPQLYRPIEETPCHFISSLDELVELNEKLLNCQEFAVDLEHHSYRSFLGLTCLMQISTRTEDFIIDTLELRSDMYILNESLTDPAIVKVFHGADSDIEWLQKDFGLYVVNMFDTHQAARLLNLGRHSLDHLLKLYCNVDSNKQYQLADWRIRPLPEEMLSYARDDTHYLLYIYDKMRLEMWERGNGQPVQLQVVWQRSRDICLKKFIKPIFTDESYLELYRKQKKHLNTQQLTAFQLLFAWRDKTARREDESYGYVLPNHMMLKIAEELPKEPQGIIACCNPVPPLVRQQINEMHLLIQQAREMPLLKSEVAAGVKKSGPLPSAERLENVLFGPHDCSHAPPDGYPIIPTSGSVPVQKQASLFPDEKEDNLLGTTCLIATAVITLFNEPSAEDSKKGPLTVAQKKAQNIMESFENPFRMFLPSLGHRAPVSQAAKFDPSTKIYEISNRWKLAQVQVQKDSKEAVKKKAAEQTAAREQAKEACKAAAEQAISVRQQVVLENAAKKRERATSDPRTTEQKQEKKRLKISKKPKDPEPPEKEFTPYDYSQSDFKAFAGNSKSKVSSQFDPNKQTPSGKKCIAAKKIKQSVGNKSMSFPTGKSDRGFRYNWPQR
binds	–	–	–	exosome-associated protein C1D (protein, UniProt Q13901 1-141) MAGEEINEDYPVEIHEYLSAFENSIGAVDEMLKTMMSVSRNELLQKLDPLEQAKVDLVSAYTLNSMFWVYLATQGVNPKEHPVKQELERIRVYMNRVKEITDKKKAGKLDRGAASRFVKNALWEPKSKNASKVANKGKSKS
